# Reference: PubChem BioAssay AID504467 (National Center for Advancing Translational Sciences (NCATS), 2011)
# Among all 330,000 compounds or so, about 7,700 (2.3%) were called active. Inconclusive means that the source gave no clear call. Such entries were picked first, then a sample of the others. The call rests on the fitted dose curve; in most records, active means well fitted inhibition curve with a large enough effect; inconclusive means small, poorly fitted or top-dose-only effect, or effect the other way; inactive means flat fitted curve, though single readings scatter. Potencies beside an inconclusive call are fits to weak or partial responses and may not hold up.
# Assay: qHTS screen for small molecules that inhibit ELG1-dependent DNA repair in human embryonic kidney (HEK293T) cells expressing luciferase-tagged ELG1; further: nearly all actives have a fitted effect of over 55% in size
# Settings: HEK293T ELG1-luciferase reporter, luminescence, 16 h, DNA damage induced by 5-fluorouridine; series mostly up to 46.1 µM
# Procedure, shortened: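 HEK293T cells expressing luciferase-tagged ELG1 (2,000/well) received 5-Fluorouridine plus compound or DMSO for 16 hr at 37 °C. Luciferase was read by ONE-Glo luminescence after 30 min at room temperature.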
# Potency means the concentration at half of the fitted maximal effect.
row,SMILES,Potency
1,C/C(=N\NC(=O)c1ccc(NS(=O)(=O)c2cccs2)cc1)c1ccccn1,active: 3.66 µM
2,COc1ccc2nc(SCC(=O)c3ccco3)[nH]c2c1,"inconclusive: 7.31 µM [activator, partial curve]"
3,CC(C)OCCCNC(=O)CN1CCN(Cc2ccccc2Cl)C1=O,inactive
4,CC/C(=N\NC(=S)Nc1cc(C)ccc1C)c1ccc(OC(F)F)cc1,"inconclusive: 32.6 µM [inhibitor, single point]"
5,CC(=O)c1ccc(-n2nnnc2SCC(=O)N2CCc3ccccc3C2)cc1,"inconclusive: 32.6 µM [inhibitor, partial curve, poor fit]"
6,COC(=O)C1=C(Nc2ccc(C)cc2)C=C(C)C(C(=O)OC)C1c1cccc(OC)c1 (centres undefined),"inconclusive: 8.2 µM [inhibitor, partial curve]"
7,CCN(CC)CCNC(=O)CCc1c(C)nc2c(c(C)nn2-c2ccc(C)c(C)c2)c1C,"inconclusive: 23.1 µM [activator, single point]"
8,Cc1ccc(-c2csc(C(C#N)=C3CCCC3)n2)cc1,"inconclusive: 8.91 µM [activator, partial curve]"
9,CC(=O)Nc1cccc(NC(=O)C(=O)Nc2ccc3c(c2)N(C(=O)C2CC2)CCC3)c1,"inconclusive: 3.26 µM [activator, single point]"
10,C[C@H](NC(=O)c1nc[nH]c1C(=O)N1CCNCC1)C(=O)OCc1ccccc1,"inconclusive: 20 µM [activator, single point]"
11,COc1cccc(C(=O)CN2C3=NCCCN3c3ccccc32)c1,inactive
12,O=C(O)c1ccc2c3c(ncnc13)-c1ccccc1C2=O,"inconclusive: 12.6 µM [inhibitor, single point]"
13,CC(=O)c1cccc(Nc2nc(-c3ccccc3)nc3ccccc23)c1,active: 23.1 µM
14,COc1ccccc1/C=C/c1onc(C)c1S(=O)(=O)N1CCC(C(=O)NC(C)C)CC1,"inconclusive: 18.3 µM [inhibitor, partial curve]"
15,CCc1ccc(C(=O)N/N=C/c2cccc3ccccc23)nc1,"inconclusive: 18.4 µM [activator, partial curve]"
16,O=C(NC1CCCCC1)N1CCC(c2nc(-c3ccc(S(=O)(=O)N4CCCC4)cc3)no2)CC1,"inconclusive: 16.4 µM [inhibitor, partial curve, poor fit]"
17,COc1ccccc1-c1noc(CCCC(=O)N2CCOCC2)n1,inactive
18,COC(=O)CCC(=O)Nc1ccc2oc3c(c2c1)CCCC3,inactive
19,O=C(CSc1cn[nH]n1)Nc1nc2ccccc2s1,"inconclusive: 23.1 µM [activator, partial curve]"
20,CCC(=O)Nc1nonc1-c1nc2ccccc2n1CCC(C)C,active: 23.1 µM
21,O=c1cc(CN2CCN(Cc3ccccc3)CC2)c2cc(Cl)ccc2o1,inactive
22,CSc1ccc(CN(C)C(=O)CN2C(=O)NC3(CCCC3)C2=O)cc1,inactive
23,CC(C)CCN1CCN(Cc2coc3ccccc3c2=O)CC1CCO (centres undefined),inactive
24,CCCc1ccc(OCc2ccc(C(=O)N3CCCC3)o2)cc1,inactive
25,CC(C)NC(=O)NC(=O)CSc1nnc(C(F)(F)F)n1C,inactive

row,SMILES,Potency
1,Cc1ccc(C(=O)NCc2ccccc2)cc1Br,inactive
2,C[C@H](NC(=O)OC(C)(C)C)c1nnc(SCC(=O)c2ccc(Cl)cc2)o1,inactive
3,COCCN(C(=O)CNC(=O)c1ccco1)C(C(=O)NC1CCCC1)c1ccc(OC)cc1 (centres undefined),inactive
4,S=c1[nH]nc(-c2cc(-c3ccsc3)n[nH]2)n1-c1cccc2ccccc12,inactive
5,CCOc1ccccc1N1CCN(C(=O)CCNS(=O)(=O)c2ccccc2F)CC1,inactive
6,COc1cccc2sc(Nc3nc4ccc(NC(C)=O)cc4s3)nc12,"inconclusive: 18.4 µM [inhibitor, single point]"
7,COc1cc2cc(CN(Cc3cccnc3)C(=O)Nc3ccccc3F)c(=O)[nH]c2cc1OC,active: 5.8 µM
8,C/C(CCC(C)C)=N\Nc1ccc(S(N)(=O)=O)cc1[N+](=O)[O-],"inconclusive: 29.1 µM [inhibitor, single point]"
9,COc1cc(OC)cc(-c2n[nH]c(=S)n2-c2ccc3c(c2)OCCO3)c1,inactive
10,COC(=O)C1=CN(Cc2ccc(OC)cc2)C=C(C(=O)OC)C1c1cc(OC)c(OC)c(OC)c1,inactive
11,O=C(OCC(=O)c1ccccc1Cl)C1=NN(c2ccccc2)C(=O)CC1,"inconclusive: 20.6 µM [activator, single point]"
12,Cc1ccccc1N1CCN(C2CCCN(C(=O)c3cn4c(C)cccc4n3)C2)CC1 (centres undefined),active: 16.4 µM
13,O=[N+]([O-])c1c(NCCCO)cc(N2CCN(Cc3ccc4c(c3)OCO4)CC2)c2nonc12,active: 23.1 µM
14,Cc1ccc(CNC(=O)C2CCN(C(=O)Nc3ccc(C)cc3)CC2)cc1,inactive
15,CCCn1c(NC(=S)Nc2ccccc2)nc2ccccc21,"inconclusive: 25.9 µM [activator, single point]"
16,C/C(=N\NC(=O)c1ccccc1O)C1CC1,"inconclusive: 14.6 µM [activator, single point]"
17,COc1ccccc1-c1c(C(F)(F)F)oc2cc(OS(C)(=O)=O)ccc2c1=O,"inconclusive: 7.31 µM [inhibitor, partial curve, poor fit]"
18,CCOc1ccc2oc(C(=O)OCC(=O)N3C(C)CCCC3C)c(C)c2c1 (centres undefined),"inconclusive: 35.5 µM [inhibitor, single point]"
19,COc1cc(NC(=O)c2ccccc2Cl)ccc1NC(=O)c1cccs1,"inconclusive: 16.4 µM [activator, partial curve]"
20,CCOC(=O)c1c(N)sc(C(=O)OCCOC)c1C,"inconclusive: 23.1 µM [activator, partial curve]"
21,CCCn1c(NC(=O)CN2C(=O)NC3(CCCCC3)C2=O)nc2ccccc21,inactive
22,COc1ccc(-c2cn3cccc(C)c3n2)cc1Br,"inconclusive: 4.61 µM [activator, partial curve]"
23,O=C(O)c1ccc2c(c1)C(=O)N(CCC1=CCCCC1)C2=O,inactive
24,O=[N+]([O-])c1ccc(O)c(/C=N/NC2=NS(=O)(=O)c3ccccc32)c1,"inconclusive: 10.3 µM [inhibitor, single point]"

# Part of the list above in order of molar mass, smallest number first.
row,SMILES,Potency
17,COc1ccccc1-c1noc(CCCC(=O)N2CCOCC2)n1,inactive
24,O=[N+]([O-])c1ccc(O)c(/C=N/NC2=NS(=O)(=O)c3ccccc32)c1,"inconclusive: 10.3 µM [inhibitor, single point]"
5,CCOc1ccccc1N1CCN(C(=O)CCNS(=O)(=O)c2ccccc2F)CC1,inactive
